PubChem BioAssay AID504774, Drosophila RNAi Screening Center | 2011
Aim: 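Fly genes whose loss alters survival after alkylation damage to DNA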 (primary screen). Cell system: Drosophila Kc167 cells. Reagent: long dsRNA against Drosophila genes, about 0.25 µg dsRNA per well. Time to read-out: about 6 days: 3 days knock-down, then 3 days with or without MMS. Challenge: methyl methanesulphonate 0.004% (w/v) for 3 days after knock-down. Detection: 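ATP-dependent luminescence as a measure of live cells in MMS-exposed wells, quantile normalised within each plate, with replicate values also given as a mean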. Direction: mean viability with MMS and viability with MMS: higher = more surviving cells after MMS.
In all, the deposit lists about 23,000 reagents; shown is an unselected part of those with a known target gene and a result. 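Values are quantile-normalised luminescence on an arbitrary scale; higher means more cells surviving MMS.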 The numbers tell different reagents against one gene apart. A plus sign joins genes that one reagent is predicted to hit.

no.	predicted target	reagent no.	mean viability with MMS	viability with MMS, replicate 1	viability with MMS, replicate 2
1	BomT3	1	3.62e6	4.10e6	4.09e6
2	BomT3	2	3.78e6	4.19e6	4.39e6
3	CG17224	1	3.75e6	4.43e6	3.94e6
4	Tep5Psi	1	3.53e6	4.01e6	3.99e6
5	Tep5Psi	2	3.57e6	4.03e6	4.06e6
6	snoRNA:U31:54Ec + snoRNA:snR38:54Eb + snoRNA:U27:54Eb + 8 more	1	3.53e6	4.16e6	3.85e6
7	CG31198	1	3.62e6	4.11e6	4.09e6
8	CG34290	1	3.49e6	3.83e6	4.09e6
9	S-Lap5	1	3.51e6	4.05e6	3.94e6
10	CG31793	1	3.82e6	4.32e6	4.23e6
11	CG8136	1	3.68e6	4.13e6	4.19e6
12	CG15894	1	3.61e6	4.02e6	4.17e6
13	CG15894	2	3.21e6	3.58e6	3.64e6
14	drk	1	3.29e6	3.83e6	3.64e6
15	Aps	1	3.66e6	4.03e6	4.23e6
16	CG5050	1	3.49e6	4.00e6	3.94e6
17	CG33013 (retired record)	1	3.73e6	4.55e6	4.10e6
18	l(3)72Dr	1	3.57e6	4.05e6	4.06e6
19	js	1	3.49e6	3.98e6	3.92e6
20	grn	1	2.80e6	3.58e6	3.58e6
21	grn	2	3.73e6	4.19e6	4.22e6
22	Gr28a	1	3.48e6	3.97e6	3.93e6
23	CG18631 (retired record)	1	3.54e6	3.99e6	4.03e6
24	CG7497	1	3.48e6	4.00e6	3.89e6
25	CG32263	1	3.63e6	4.10e6	4.09e6
26	Fbxl4	1	3.65e6	4.08e6	4.19e6
27	ADD1	1	3.69e6	4.18e6	4.19e6
28	CG33490	1	3.58e6	4.13e6	3.99e6
29	pros	1	3.64e6	4.06e6	4.13e6
30	pros	2	3.55e6	4.01e6	4.05e6
31	pros	3	3.39e6	3.85e6	3.95e6
32	und	1	3.62e6	4.31e6	3.94e6
33	CG15014	1	3.39e6	3.98e6	3.69e6
34	GCC185	1	3.37e6	3.83e6	3.86e6
35	CG10953	1	3.71e6	4.20e6	4.16e6
36	CG2921	1	3.51e6	4.14e6	3.81e6
37	Lcp65Af	1	3.79e6	4.27e6	4.28e6

11 entries from above, limited to “mean viability with MMS”:
CG8136 = 3.68e6
CG15894 #1 = 3.61e6
CG15894 #2 = 3.21e6
drk = 3.29e6
Aps = 3.66e6
CG5050 = 3.49e6
CG33013 (retired record) = 3.73e6
l(3)72Dr = 3.57e6
js = 3.49e6
grn #1 = 2.80e6
grn #2 = 3.73e6

Further results:
no.	predicted target	reagent no.	mean viability with MMS	viability with MMS, replicate 1	viability with MMS, replicate 2
38	TTLL1A	1	3.66e6	4.34e6	3.99e6
39	Adk2	1	3.49e6	3.94e6	3.96e6
40	CG12769	1	3.60e6	4.13e6	4.04e6
41	Gr59a	1	3.42e6	3.99e6	3.81e6
42	CG32085	1	3.54e6	4.09e6	3.94e6
43	CG32085	2	3.53e6	4.22e6	3.78e6
44	CG32085	3	3.41e6	3.97e6	3.73e6
45	CG1979	1	3.48e6	4.02e6	3.85e6
46	Vmat	1	3.82e6	4.31e6	4.28e6
47	Vmat	2	3.49e6	4.00e6	3.88e6
48	Vmat	3	3.47e6	3.98e6	3.92e6
49	repo	1	3.27e6	3.75e6	3.72e6
50	repo	2	3.55e6	4.20e6	3.88e6
51	Act5C	1	3.56e6	4.02e6	4.08e6
52	Lsp1alpha	1	3.53e6	4.02e6	3.98e6
53	CG33521	1	3.57e6	4.10e6	3.98e6
54	CG33521	2	3.68e6	4.13e6	4.21e6
55	CG33521	3	3.63e6	4.09e6	4.10e6
56	CG15740	1	2.92e6	3.63e6	3.64e6
57	CG15740	2	3.58e6	4.05e6	4.08e6
58	mtTFB1 + Ccdc56	1	3.71e6	4.11e6	4.32e6
59	msn	1	3.82e6	4.36e6	4.16e6
60	msn	2	3.55e6	3.99e6	4.04e6
61	CG32032	1	3.48e6	3.95e6	3.95e6
62	Dlg5	1	3.41e6	3.94e6	3.73e6
63	CG34183	1	3.36e6	3.80e6	3.76e6
64	Mob4	1	3.38e6	3.67e6	3.51e6
65	wbl	1	3.54e6	3.96e6	4.05e6
66	Oseg5	1	3.56e6	4.05e6	4.04e6
67	blow	1	3.51e6	4.01e6	3.92e6
68	Cyt-c-p	1	3.46e6	3.94e6	3.91e6
